For this test, the target named is T1, SPANX-C-V5 fusion protein (UniProt Q9NY87).
T1 sequence: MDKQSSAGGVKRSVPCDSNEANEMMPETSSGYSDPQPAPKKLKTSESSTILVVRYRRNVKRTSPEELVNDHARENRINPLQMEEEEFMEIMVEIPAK
In words: affinity purification with mass spectrometry; SPANX-C-V5 immunoprecipitates, with proteins bound to protein-A sepharose beads as control; run into an SDS/PAGE gel, digested with trypsin, reverse phase LC-MS/MS.

Chains of the proteins cited; added tags and fusions are not shown. Residues count along the entry.
UniProt P02545, residues 1-646: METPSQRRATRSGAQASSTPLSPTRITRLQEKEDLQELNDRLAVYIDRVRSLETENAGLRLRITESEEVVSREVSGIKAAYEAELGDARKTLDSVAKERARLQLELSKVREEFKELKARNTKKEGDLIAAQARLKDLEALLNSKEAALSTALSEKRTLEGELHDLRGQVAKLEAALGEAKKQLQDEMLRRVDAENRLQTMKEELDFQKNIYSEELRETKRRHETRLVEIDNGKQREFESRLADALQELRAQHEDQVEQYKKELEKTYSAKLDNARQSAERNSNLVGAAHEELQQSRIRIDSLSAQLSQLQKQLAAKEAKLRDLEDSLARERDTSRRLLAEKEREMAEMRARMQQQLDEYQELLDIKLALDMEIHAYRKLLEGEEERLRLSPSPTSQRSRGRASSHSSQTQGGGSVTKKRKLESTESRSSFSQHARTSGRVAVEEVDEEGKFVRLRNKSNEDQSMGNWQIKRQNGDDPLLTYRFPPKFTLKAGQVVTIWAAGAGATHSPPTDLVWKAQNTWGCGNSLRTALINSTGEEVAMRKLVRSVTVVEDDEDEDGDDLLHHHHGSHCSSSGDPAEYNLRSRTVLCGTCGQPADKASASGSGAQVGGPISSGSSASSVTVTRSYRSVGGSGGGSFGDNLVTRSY

These are yes or no findings as the source states them, for the method shown. Binding seen in cells or lysates may run through a third protein. These calls come from enrichment with a bait or labelling near it, and not all partners need be listed. Tags and fused reporters may be left off the sequences shown.

As to “Lamin A/C (Lamin A and Lamin C, products of the LMNA gene) (from UniProt P02545 1-646)”, the binding result is given as “binds”.

Values taken from paper PMC4924746.
